Results are given in words; binding and its absence hold for the method and conditions named.
Legend:
[1] = biological target: KaiC with deletion of C-terminal tentacles (KaiC-ΔC) (S. elongatus); assay: high-speed atomic force microscopy (HS-AFM); KaiC hexamers immobilised on bare mica (CI end up, C-terminal side attached to the mica), KaiA added to the observation buffer; 20 mM Tris-HCl pH 8.0, 5 mM MgCl2, no ATP, 25-28 °C (Fig. 1a, c); both purified
[2] = biological target: KaiC with deletion of C-terminal tentacles (KaiC-ΔC) (S. elongatus); assay: high-speed atomic force microscopy (HS-AFM); KaiC hexamers immobilised on AP-mica (CII end up, C-terminal tentacles exposed), KaiA added to the observation buffer; 20 mM Tris-HCl pH 8.0, 5 mM MgCl2, no ATP, 25-28 °C (Fig. 1b, d); both purified

binding [1]: no binding | binding [2]: no binding
B1: KaiA (natural protein, S. elongatus, UniProt Q79PF6 1-284, looked up)
chain: MLSQIAICIWVESTAILQDCQRALSADRYQLQVCESGEMLLEYAQTHRDQIDCLILVAANPSFRAVVQQLCFEGVVVPAIVVGDRDSEDPDEPAKEQLYHSAELHLGIHQLEQLPYQVDAALAEFLRLAPVETMADHIMLMGANHDPELSSQQRDLAQRLQERLGYLGVYYKRDPDRFLRNLPAYESQKLHQAMQTSYREIVLSYFSPNSNLNQSIDNFVNMAFFADVPVTKVVEIHMELMDEFAKKLRVEGRSEDILLDYRLTLIDVIAHLCEMYRRSIPRET
notes: circadian clock protein KaiA of Synechococcus elongatus, native (unmutated); also called native KaiA; KaiA dimer; source: E. coli BL21 or DH5α, pGEX-based construct, purified (glutathione-agarose, HRV3C cleavage on the column, Q Sepharose); not shown: GST, N-terminal, cleaved

— article PMC6092398, “Revealing circadian mechanisms of integration and resilience by visualizing clock proteins working in real time” (Nature Communications, 2018)
